# From the supplement of paper PMC10032668
# Chains of the proteins cited; added tags and fusions are not shown.
# RBBP4, Q09028, UniProt Q09028, whole entry: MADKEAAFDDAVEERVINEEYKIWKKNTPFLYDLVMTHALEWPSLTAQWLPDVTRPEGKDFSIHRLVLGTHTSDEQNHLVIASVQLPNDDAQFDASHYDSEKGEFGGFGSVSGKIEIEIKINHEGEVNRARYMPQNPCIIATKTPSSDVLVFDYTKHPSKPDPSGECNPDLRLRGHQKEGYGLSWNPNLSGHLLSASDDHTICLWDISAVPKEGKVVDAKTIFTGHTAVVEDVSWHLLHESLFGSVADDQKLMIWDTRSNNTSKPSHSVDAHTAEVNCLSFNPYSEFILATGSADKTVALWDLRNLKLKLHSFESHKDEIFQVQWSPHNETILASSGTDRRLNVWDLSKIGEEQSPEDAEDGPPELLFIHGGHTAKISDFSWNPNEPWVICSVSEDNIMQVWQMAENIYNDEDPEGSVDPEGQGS
# SMARCC1, Q92922, UniProt Q92922, whole entry: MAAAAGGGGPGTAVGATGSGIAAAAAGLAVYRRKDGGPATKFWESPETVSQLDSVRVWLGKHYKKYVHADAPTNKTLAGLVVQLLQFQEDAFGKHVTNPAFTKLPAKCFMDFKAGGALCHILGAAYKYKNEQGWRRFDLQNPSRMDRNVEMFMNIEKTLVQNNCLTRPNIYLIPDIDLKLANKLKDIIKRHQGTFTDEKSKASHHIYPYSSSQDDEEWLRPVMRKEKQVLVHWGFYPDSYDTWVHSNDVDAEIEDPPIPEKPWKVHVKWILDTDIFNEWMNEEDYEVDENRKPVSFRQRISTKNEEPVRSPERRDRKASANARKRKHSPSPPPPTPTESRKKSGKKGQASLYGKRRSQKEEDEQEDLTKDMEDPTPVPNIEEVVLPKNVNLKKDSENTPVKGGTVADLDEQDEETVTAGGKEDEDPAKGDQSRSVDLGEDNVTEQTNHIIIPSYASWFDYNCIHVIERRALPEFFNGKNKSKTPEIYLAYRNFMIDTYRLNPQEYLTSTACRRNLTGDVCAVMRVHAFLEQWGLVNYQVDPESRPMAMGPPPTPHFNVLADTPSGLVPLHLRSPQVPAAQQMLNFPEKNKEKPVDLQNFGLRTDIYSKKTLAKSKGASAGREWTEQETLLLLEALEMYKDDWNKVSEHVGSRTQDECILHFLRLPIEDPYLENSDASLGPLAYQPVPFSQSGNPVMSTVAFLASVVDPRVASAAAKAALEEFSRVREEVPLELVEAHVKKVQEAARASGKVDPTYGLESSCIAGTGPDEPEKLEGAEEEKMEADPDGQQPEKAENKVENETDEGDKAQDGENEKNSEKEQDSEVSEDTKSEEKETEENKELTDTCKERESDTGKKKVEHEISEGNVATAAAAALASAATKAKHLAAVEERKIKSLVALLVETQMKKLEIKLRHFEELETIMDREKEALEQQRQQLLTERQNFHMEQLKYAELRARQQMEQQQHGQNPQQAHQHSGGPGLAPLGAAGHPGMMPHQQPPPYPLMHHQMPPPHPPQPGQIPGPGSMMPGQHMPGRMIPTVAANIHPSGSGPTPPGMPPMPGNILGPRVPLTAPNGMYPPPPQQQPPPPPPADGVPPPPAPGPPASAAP
# SMC2, O95347, UniProt O95347, whole entry: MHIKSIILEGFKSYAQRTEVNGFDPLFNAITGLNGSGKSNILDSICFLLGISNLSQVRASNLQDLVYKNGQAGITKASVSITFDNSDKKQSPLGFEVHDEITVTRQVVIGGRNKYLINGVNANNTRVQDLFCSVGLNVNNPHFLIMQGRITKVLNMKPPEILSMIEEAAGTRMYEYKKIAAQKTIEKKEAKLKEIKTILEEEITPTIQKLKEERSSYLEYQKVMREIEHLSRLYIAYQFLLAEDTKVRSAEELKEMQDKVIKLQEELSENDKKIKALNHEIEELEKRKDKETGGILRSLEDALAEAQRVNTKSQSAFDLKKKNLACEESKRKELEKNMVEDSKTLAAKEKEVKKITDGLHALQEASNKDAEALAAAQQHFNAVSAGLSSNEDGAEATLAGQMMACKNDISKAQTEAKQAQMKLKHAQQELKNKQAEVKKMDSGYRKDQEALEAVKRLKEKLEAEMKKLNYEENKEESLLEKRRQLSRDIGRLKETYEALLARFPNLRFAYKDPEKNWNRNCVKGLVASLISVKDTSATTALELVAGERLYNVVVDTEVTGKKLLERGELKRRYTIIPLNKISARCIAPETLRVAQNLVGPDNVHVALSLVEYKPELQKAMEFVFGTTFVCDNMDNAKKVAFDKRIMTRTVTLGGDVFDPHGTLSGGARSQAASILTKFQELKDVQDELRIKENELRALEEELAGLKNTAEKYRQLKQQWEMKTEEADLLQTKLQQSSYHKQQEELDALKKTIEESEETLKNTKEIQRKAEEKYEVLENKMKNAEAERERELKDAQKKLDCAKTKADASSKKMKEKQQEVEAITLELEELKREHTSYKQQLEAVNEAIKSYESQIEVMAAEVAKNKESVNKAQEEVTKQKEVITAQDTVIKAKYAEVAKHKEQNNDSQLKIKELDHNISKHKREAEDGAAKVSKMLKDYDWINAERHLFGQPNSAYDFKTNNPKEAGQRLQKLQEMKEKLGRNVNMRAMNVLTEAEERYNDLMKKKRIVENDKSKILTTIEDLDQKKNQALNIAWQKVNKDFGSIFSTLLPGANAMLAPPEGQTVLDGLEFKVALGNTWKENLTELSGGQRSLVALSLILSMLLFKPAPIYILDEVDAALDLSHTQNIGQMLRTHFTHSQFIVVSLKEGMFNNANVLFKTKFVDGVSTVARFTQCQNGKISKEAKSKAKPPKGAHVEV
# SP1, P08047, UniProt P08047, whole entry: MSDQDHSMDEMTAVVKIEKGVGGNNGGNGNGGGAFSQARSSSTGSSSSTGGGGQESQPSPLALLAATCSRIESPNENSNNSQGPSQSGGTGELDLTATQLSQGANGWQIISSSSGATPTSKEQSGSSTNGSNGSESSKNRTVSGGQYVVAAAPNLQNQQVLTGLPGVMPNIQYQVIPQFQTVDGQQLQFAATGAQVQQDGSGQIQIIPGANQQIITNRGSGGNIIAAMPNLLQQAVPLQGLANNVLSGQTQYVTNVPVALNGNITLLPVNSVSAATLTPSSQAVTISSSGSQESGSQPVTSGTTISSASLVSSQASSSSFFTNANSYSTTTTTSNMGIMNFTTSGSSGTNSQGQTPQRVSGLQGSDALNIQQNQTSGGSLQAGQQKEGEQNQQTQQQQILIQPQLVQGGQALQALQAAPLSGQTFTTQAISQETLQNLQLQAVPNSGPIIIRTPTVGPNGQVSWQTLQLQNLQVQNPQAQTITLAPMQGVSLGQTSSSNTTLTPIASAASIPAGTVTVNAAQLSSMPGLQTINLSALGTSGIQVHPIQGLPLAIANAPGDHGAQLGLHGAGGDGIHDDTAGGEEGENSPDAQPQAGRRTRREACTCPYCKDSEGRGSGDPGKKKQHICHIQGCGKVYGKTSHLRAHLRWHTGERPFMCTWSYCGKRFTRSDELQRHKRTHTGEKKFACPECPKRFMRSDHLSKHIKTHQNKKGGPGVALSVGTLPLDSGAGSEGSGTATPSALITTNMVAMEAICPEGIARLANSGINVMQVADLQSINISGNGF
# EPB41L2, O43491, UniProt O43491, whole entry: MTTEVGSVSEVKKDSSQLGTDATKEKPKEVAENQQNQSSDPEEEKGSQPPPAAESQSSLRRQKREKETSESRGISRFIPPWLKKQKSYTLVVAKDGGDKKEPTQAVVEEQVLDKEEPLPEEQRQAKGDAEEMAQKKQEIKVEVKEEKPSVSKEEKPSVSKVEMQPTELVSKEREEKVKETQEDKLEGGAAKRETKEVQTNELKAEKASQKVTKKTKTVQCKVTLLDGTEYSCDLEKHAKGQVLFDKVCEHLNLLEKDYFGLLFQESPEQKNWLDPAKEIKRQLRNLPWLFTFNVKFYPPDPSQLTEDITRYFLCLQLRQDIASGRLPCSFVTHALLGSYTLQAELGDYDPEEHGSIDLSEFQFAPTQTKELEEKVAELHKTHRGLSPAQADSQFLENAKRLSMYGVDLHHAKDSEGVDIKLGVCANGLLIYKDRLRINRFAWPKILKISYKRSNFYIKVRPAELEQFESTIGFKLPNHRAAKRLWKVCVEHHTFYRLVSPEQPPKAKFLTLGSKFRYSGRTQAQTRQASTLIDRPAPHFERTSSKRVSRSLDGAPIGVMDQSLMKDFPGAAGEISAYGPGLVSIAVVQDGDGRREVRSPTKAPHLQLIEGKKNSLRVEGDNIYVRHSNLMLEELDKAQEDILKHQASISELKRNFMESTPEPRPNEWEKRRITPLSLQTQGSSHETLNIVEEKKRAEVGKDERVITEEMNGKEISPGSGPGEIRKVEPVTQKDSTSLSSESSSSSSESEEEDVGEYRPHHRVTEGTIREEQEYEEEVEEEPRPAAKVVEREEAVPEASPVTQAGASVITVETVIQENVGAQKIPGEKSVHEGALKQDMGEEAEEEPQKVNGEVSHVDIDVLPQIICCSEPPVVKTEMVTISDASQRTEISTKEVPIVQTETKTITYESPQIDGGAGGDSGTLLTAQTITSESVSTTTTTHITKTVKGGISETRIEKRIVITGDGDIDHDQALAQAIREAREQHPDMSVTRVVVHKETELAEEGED
# HDAC1, Q13547, UniProt Q13547, whole entry: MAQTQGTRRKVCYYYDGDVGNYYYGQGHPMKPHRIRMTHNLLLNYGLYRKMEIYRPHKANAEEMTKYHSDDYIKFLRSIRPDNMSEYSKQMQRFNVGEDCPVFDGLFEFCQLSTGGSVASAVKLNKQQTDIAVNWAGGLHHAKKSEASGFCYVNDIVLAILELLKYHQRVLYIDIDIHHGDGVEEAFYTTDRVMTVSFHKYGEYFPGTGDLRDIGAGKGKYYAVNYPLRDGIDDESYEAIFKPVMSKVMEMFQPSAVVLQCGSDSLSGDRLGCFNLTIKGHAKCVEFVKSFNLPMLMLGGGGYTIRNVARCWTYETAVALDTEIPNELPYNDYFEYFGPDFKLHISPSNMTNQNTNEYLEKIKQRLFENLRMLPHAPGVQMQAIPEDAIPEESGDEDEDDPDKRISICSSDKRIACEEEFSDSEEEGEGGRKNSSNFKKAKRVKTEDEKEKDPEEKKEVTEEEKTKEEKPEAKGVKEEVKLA
# SMARCE1, Q969G3, UniProt Q969G3, whole entry: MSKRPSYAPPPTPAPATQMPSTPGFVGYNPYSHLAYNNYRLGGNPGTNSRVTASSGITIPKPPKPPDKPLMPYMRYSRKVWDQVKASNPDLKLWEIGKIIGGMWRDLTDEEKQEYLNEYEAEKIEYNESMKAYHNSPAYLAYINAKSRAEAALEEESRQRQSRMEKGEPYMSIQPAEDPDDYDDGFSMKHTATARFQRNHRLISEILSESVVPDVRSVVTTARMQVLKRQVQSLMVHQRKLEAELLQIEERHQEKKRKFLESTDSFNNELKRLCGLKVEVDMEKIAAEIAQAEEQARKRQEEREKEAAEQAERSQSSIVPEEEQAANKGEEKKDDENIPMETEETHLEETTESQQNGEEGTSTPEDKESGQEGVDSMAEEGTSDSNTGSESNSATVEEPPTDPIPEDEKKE
# This is one part of the list. Only hits are listed; about a third recur on repeated control peptides.
# Tests used:
# Assay in all cases: PRISMA enrichment of interactor (LFQ) in peptide spot vs all other peptide spots (log2 fold change); higher = stronger / more specific binding of the interactor to the peptide
# QRICH1, Q2TAL8 = biological target: QRICH1, Q2TAL8
# Protocol: (§1)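 PRISMA: 15-aa overlapping tiles (offset 8 aa) of 60 microproteins, plus SOS1/GLUT1 control peptides, were spot-synthesized on cellulose membranes in triplicate. Membranes were incubated with benzonase-treated HEK293T lysate, and bound proteins were identified by LC-MS/MS with LFQ. Enrichment is the log2 fold change of each protein in one spot versus all other spots. Only interactors passing the significance cutoff are listed.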
# RBBP4, Q09028 = biological target: RBBP4, Q09028
# Protocol: as §1
# RBM26, Q5T8P6 = biological target: RBM26, Q5T8P6
# Protocol: as §1
# RNF2, Q99496 = biological target: RNF2, Q99496
# Protocol: as §1
# RPRD1A, Q96P16 = biological target: RPRD1A, Q96P16
# Protocol: as §1
# RRP15, Q9Y3B9 = biological target: RRP15, Q9Y3B9
# Protocol: as §1
# SIRT1, Q96EB6 = biological target: SIRT1, Q96EB6
# Protocol: as §1
# SMARCC1, Q92922 = biological target: SMARCC1, Q92922
# Protocol: as §1
# SMC2, O95347 = biological target: SMC2, O95347
# Protocol: as §1
# SP1, P08047 = biological target: SP1, P08047
# Protocol: as §1
# TIAL1, Q01085 = biological target: TIAL1, Q01085
# Protocol: as §1
# YTHDF3, Q7Z739 = biological target: YTHDF3, Q7Z739
# Protocol: as §1
# ZC2HC1A, Q96GY0 = biological target: ZC2HC1A, Q96GY0
# Protocol: as §1
# ALDH4A1, P30038 = biological target: ALDH4A1, P30038
# Protocol: as §1
# ARL6IP4, Q66PJ3 = biological target: ARL6IP4, Q66PJ3
# Protocol: as §1
# CCDC77, Q9BR77 = biological target: CCDC77, Q9BR77
# Protocol: as §1
# CDC5L, Q99459 = biological target: CDC5L, Q99459
# Protocol: as §1
# CEP290, O15078 = biological target: CEP290, O15078
# Protocol: as §1
# DDX52, Q9Y2R4 = biological target: DDX52, Q9Y2R4
# Protocol: as §1
# EHD1, Q9H4M9 = biological target: EHD1, Q9H4M9
# Protocol: as §1
# ELOA, Q14241 = biological target: ELOA, Q14241
# Protocol: as §1
# EPB41L2, O43491 = biological target: EPB41L2, O43491
# Protocol: as §1
# FIP1L1, Q6UN15 = biological target: FIP1L1, Q6UN15
# Protocol: as §1
# HACD2, Q6Y1H2 = biological target: HACD2, Q6Y1H2
# Protocol: as §1
# HNRNPD, Q14103 = biological target: HNRNPD, Q14103
# Protocol: as §1
# HSPA5, P11021 = biological target: HSPA5, P11021
# Protocol: as §1
# NAA35, Q5VZE5 = biological target: NAA35, Q5VZE5
# Protocol: as §1
# NUP107, P57740 = biological target: NUP107, P57740
# Protocol: as §1
# PFKP, Q01813 = biological target: PFKP, Q01813
# Protocol: as §1
# PGRMC1, O00264 = biological target: PGRMC1, O00264
# Protocol: as §1
# POLD2, P49005 = biological target: POLD2, P49005
# Protocol: as §1
# PPAN-P2RY11 = biological target: PPAN-P2RY11
# Protocol: as §1
# RBM10 = biological target: RBM10
# Protocol: as §1
# RBM6, P78332 = biological target: RBM6, P78332
# Protocol: as §1
# SNU13, P55769 = biological target: SNU13, P55769
# Protocol: as §1
# TAB2, Q9NYJ8 = biological target: TAB2, Q9NYJ8
# Protocol: as §1
# TRIP13, Q15645 = biological target: TRIP13, Q15645
# Protocol: as §1
# VIRMA, Q69YN4 = biological target: VIRMA, Q69YN4
# Protocol: as §1
# WDR55, Q9H6Y2 = biological target: WDR55, Q9H6Y2
# Protocol: as §1
# DFFA, O00273 = biological target: DFFA, O00273
# Protocol: as §1
# DNAJB4, Q9UDY4 = biological target: DNAJB4, Q9UDY4
# Protocol: as §1
# GAPVD1, Q14C86 = biological target: GAPVD1, Q14C86
# Protocol: as §1
# HADHB, P55084 = biological target: HADHB, P55084
# Protocol: as §1
# HDAC1, Q13547 = biological target: HDAC1, Q13547
# Protocol: as §1
# HDDC2, Q7Z4H3 = biological target: HDDC2, Q7Z4H3
# Protocol: as §1
# LSG1, Q9H089 = biological target: LSG1, Q9H089
# Protocol: as §1
# NKRF, O15226 = biological target: NKRF, O15226
# Protocol: as §1
# OPA1, O60313 = biological target: OPA1, O60313
# Protocol: as §1
# RAB6A, P20340 = biological target: RAB6A, P20340
# Protocol: as §1
# RCL1, Q9Y2P8 = biological target: RCL1, Q9Y2P8
# Protocol: as §1
# SMARCE1, Q969G3 = biological target: SMARCE1, Q969G3
# Protocol: as §1
# SNX2, O60749 = biological target: SNX2, O60749
# Protocol: as §1
# STIP1, P31948 = biological target: STIP1, P31948
# Protocol: as §1
# YIPF5, Q969M3 = biological target: YIPF5, Q969M3
# Protocol: as §1
binder,measurement,setting,value
QMQSAFQNVFVLHMT [RP11-432J24.5_2],PRISMA enrichment of interactor (log2),"QRICH1, Q2TAL8",6.38
same,PRISMA enrichment of interactor (log2),"RBBP4, Q09028",4.56
same,PRISMA enrichment of interactor (log2),"RBM26, Q5T8P6",4.41
same,PRISMA enrichment of interactor (log2),"RNF2, Q99496",4.5
same,PRISMA enrichment of interactor (log2),"RPRD1A, Q96P16",5.15
same,PRISMA enrichment of interactor (log2),"RRP15, Q9Y3B9",4.49
same,PRISMA enrichment of interactor (log2),"SIRT1, Q96EB6",4.66
same,PRISMA enrichment of interactor (log2),"SMARCC1, Q92922",7.77
same,PRISMA enrichment of interactor (log2),"SMC2, O95347",4.52
same,PRISMA enrichment of interactor (log2),"SP1, P08047",5.29
same,PRISMA enrichment of interactor (log2),"TIAL1, Q01085",4.81
same,PRISMA enrichment of interactor (log2),"YTHDF3, Q7Z739",4.77
same,PRISMA enrichment of interactor (log2),"ZC2HC1A, Q96GY0",8.01
YPSVLENRARLLPLC [LINC01128],PRISMA enrichment of interactor (log2),"ALDH4A1, P30038",6.55
same,PRISMA enrichment of interactor (log2),"ARL6IP4, Q66PJ3",5.4
same,PRISMA enrichment of interactor (log2),"CCDC77, Q9BR77",5.23
same,PRISMA enrichment of interactor (log2),"CDC5L, Q99459",6.04
same,PRISMA enrichment of interactor (log2),"CEP290, O15078",5.2
same,PRISMA enrichment of interactor (log2),"DDX52, Q9Y2R4",5.1
same,PRISMA enrichment of interactor (log2),"EHD1, Q9H4M9",5.36
same,PRISMA enrichment of interactor (log2),"ELOA, Q14241",4.23
same,PRISMA enrichment of interactor (log2),"EPB41L2, O43491",4.58
same,PRISMA enrichment of interactor (log2),"FIP1L1, Q6UN15",6.95
same,PRISMA enrichment of interactor (log2),"HACD2, Q6Y1H2",5.34
same,PRISMA enrichment of interactor (log2),"HNRNPD, Q14103",6.51
same,PRISMA enrichment of interactor (log2),"HSPA5, P11021",6.24
same,PRISMA enrichment of interactor (log2),"NAA35, Q5VZE5",4.81
same,PRISMA enrichment of interactor (log2),"NUP107, P57740",6.76
same,PRISMA enrichment of interactor (log2),"PFKP, Q01813",5.41
same,PRISMA enrichment of interactor (log2),"PGRMC1, O00264",4.99
same,PRISMA enrichment of interactor (log2),"POLD2, P49005",4.03
same,PRISMA enrichment of interactor (log2),PPAN-P2RY11,4.66
same,PRISMA enrichment of interactor (log2),RBM10,4.84
same,PRISMA enrichment of interactor (log2),"RBM26, Q5T8P6",5.62
same,PRISMA enrichment of interactor (log2),"RBM6, P78332",4.51
same,PRISMA enrichment of interactor (log2),"SNU13, P55769",6.12
same,PRISMA enrichment of interactor (log2),"TAB2, Q9NYJ8",6.56
same,PRISMA enrichment of interactor (log2),"TRIP13, Q15645",4.5
same,PRISMA enrichment of interactor (log2),"VIRMA, Q69YN4",5.36
same,PRISMA enrichment of interactor (log2),"WDR55, Q9H6Y2",5.61
AGRGGSTPWAPHSPP [C5orf56],PRISMA enrichment of interactor (log2),"ALDH4A1, P30038",4.56
same,PRISMA enrichment of interactor (log2),"DFFA, O00273",7.82
same,PRISMA enrichment of interactor (log2),"DNAJB4, Q9UDY4",6.21
same,PRISMA enrichment of interactor (log2),"GAPVD1, Q14C86",5.05
same,PRISMA enrichment of interactor (log2),"HADHB, P55084",5.63
same,PRISMA enrichment of interactor (log2),"HDAC1, Q13547",8.27
same,PRISMA enrichment of interactor (log2),"HDDC2, Q7Z4H3",5.12
same,PRISMA enrichment of interactor (log2),"LSG1, Q9H089",4.57
same,PRISMA enrichment of interactor (log2),"NKRF, O15226",5.01
same,PRISMA enrichment of interactor (log2),"OPA1, O60313",5.94
same,PRISMA enrichment of interactor (log2),"RAB6A, P20340",4.39
same,PRISMA enrichment of interactor (log2),"RCL1, Q9Y2P8",6.75
same,PRISMA enrichment of interactor (log2),"SMARCE1, Q969G3",6.25
same,PRISMA enrichment of interactor (log2),"SNX2, O60749",5.29
same,PRISMA enrichment of interactor (log2),"STIP1, P31948",5.01
same,PRISMA enrichment of interactor (log2),"YIPF5, Q969M3",4.26

# No new results follow: an excerpt of the list.
binder,measurement,setting,value
AGRGGSTPWAPHSPP [C5orf56],PRISMA enrichment of interactor (log2),"RCL1, Q9Y2P8",6.75
same,PRISMA enrichment of interactor (log2),"SMARCE1, Q969G3",6.25
